The values that follow come from patent US20250025473A1 (priority 2021, published 2025).

For this assay, the system named is phosphorylated Akt (pAkt T308). The class given is cell-based, human. The conditions noted are these: HaCat, 10 μM insulin, permeabilized cells.

`CN[C@@H]1C[C@H]2O[C@@](C)([C@@H]1OC)n1c3ccccc3c3c4c(c5c6ccccc6n2c5c31)C(=O)NC4` [Staurosporine, (9S,10R,11R,13R)-2,3,10,11,12,13-hexahydro-10-methoxy-9-methyl-11-(methylamino)-9,13-epoxy-1H,9H-diindolo[1,2,3-gh:3′,2′,1′-lm]pyrrolo[3,4-j][1,7]benzodiazonin-1-one, reference compound]: the “dose inhibiting intracellular Akt phosphorylation in response to insulin” value was at most 0.1 µM.
